Article PMC6345825, “Crystal structure of the plant symporter STP10 illuminates sugar uptake mechanism in monosaccharide transporter superfamily” (Nature Communications, 2019)
Results are given in words; binding and its absence hold for the method and conditions named.

Biological target: Arabidopsis thaliana Sugar Transport Protein STP10 (Arabidopsis thaliana) (UniProt Q9LT15)
Assay: crystal structure; lipidic cubic phase (monoolein/cholesterol), 100 mM D-glucose, 0.1 M NaCitrate pH 4.5, 20 °C; space group P21, one STP10 monomer in the asymmetric unit; both purified

B1: Arabidopsis thaliana Sugar Transport Protein STP10 (protein, UniProt Q9LT15 1-514)
chain: MAGGAFVSEGGGGGRSYEGGVTAFVIMTCIVAAMGGLLFGYDLGISGGVTSMEEFLTKFFPQVESQMKKAKHDTAYCKFDNQMLQLFTSSLYLAALVASFMASVITRKHGRKVSMFIGGLAFLIGALFNAFAVNVSMLIIGRLLLGVGVGFANQSTPVYLSEMAPAKIRGALNIGFQMAITIGILVANLINYGTSKMAQHGWRVSLGLAAVPAVVMVIGSFILPDTPNSMLERGKNEEAKQMLKKIRGADNVDHEFQDLIDAVEAAKKVENPWKNIMESKYRPALIFCSAIPFFQQITGINVIMFYAPVLFKTLGFGDDAALMSAVITGVVNMLSTFVSIYAVDRYGRRLLFLEGGIQMFICQLLVGSFIGARFGTSGTGTLTPATADWILAFICVYVAGFAWSWGPLGWLVPSEICPLEIRPAGQAINVSVNMFFTFLIGQFFLTMLCHMKFGLFYFFASMVAIMTVFIYFLLPETKGVPIEEMGRVWKQHWFWKKYIPEDAIIGGHDDNNTN
In the case of B1, the binding is reported as “no binding”.
